PubChem BioAssay AID1259308 – NCATS | 2017

Test: 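Candidate targets for better recombinant protein yield in mammalian cells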 (primary screen)
Cell system: human HEK293 embryonic kidney cells stably expressing firefly luciferase (HEK-CMV-Luc2-Hygro)
Knock-down reagent: single siRNA against human genes, 0.8 pmol siRNA per well
Time to read-out: 72 h
Measured: 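Reporter luminescence and viable-cell signal on separate replicate plates, given as percent of non-targeting control and median/MAD z-scores, plus per-cell luciferase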
Scale: total luciferase, z-score and total luciferase, % of control: higher = more reporter protein produced; luciferase per cell, z-score: higher = more reporter output per viable cell; viable cells, % of control: higher = more viable cells
Call rule: 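An siRNA counts as active if its total luciferase robust z-score exceeds 3; genes with two or more such siRNAs out of three were retested with fresh siRNAs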
Calls: active = raised luciferase; inactive = no rise
This is one part, drawn at random, of about 59,000 reagents. Of all reagents, about 1,510 (2.6%) got an active call. 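Calls use total luciferase alone and ignore viability, so some active siRNAs may act by altering cell number.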 A number with no mark means an inactive call. Reagents against one gene are numbered here.

target	siRNA no.	total luciferase, z-score	total luciferase, % of control	luciferase per cell, z-score	viable cells, % of control
CYBA	1	0.615	94.1	0.389	94.9
CYBA	2	-2.34	35.4	-2.62	78.8
CYBA	3	0.714	96.1	0.527	93.5
TAL2	1	0.627	94.4	0.889	83.4
TAL2	2	1.57	113	1.22	91.5
TAL2	3	0.321	88.3	0.444	87.8
FBLN2	1	0.981	101	0.884	89.8
FBLN2	2	-3.44	13.4	-5.72	67.5
FBLN2	3	-0.969	62.6	-0.489	79.6
DBF4	1	0.62	94.2	0.49	92.5
DBF4	2	-0.665	68.7	-0.583	89.4
DBF4	3	-1.2	57.9	-0.483	73.5
GPR18	1	-0.163	78.6	-0.159	91.6
GPR18	2	0.426	90.4	-0.414	113
GPR18	3	3.21 (active)	146	2.54	83.4
DCUN1D1	1	-0.382	74.3	-0.129	85.9
DCUN1D1	2	0.238	86.6	0.366	87.9
DCUN1D1	3	0.687	95.6	0.284	99.1
FITM2	1	-0.683	68.3	-1.05	101
FITM2	2	1.89	119	1.02	102
FITM2	3	0.436	90.6	0.399	91.1
AARSD1	1	1.05	103	1.07	86.6
AARSD1	2	-1.07	60.5	-1.83	109
AARSD1	3	0.0777	83.4	-0.43	104
NSMF	1	0.0954	83.8	0.11	90.9
NSMF	2	-0.889	64.2	0.88	56.9
NSMF	3	-0.778	66.4	-0.526	85.2
KCNA10	1	-0.311	75.7	0.351	77.1
KCNA10	2	-0.158	78.8	-0.353	96.6
KCNA10	3	-0.00248	81.8	-0.638	108
NDUFB9	1	1.2	106	1.22	85.6
NDUFB9	2	-0.172	78.5	-0.0949	89.9
NDUFB9	3	-0.216	77.6	-0.515	99.3

Continued; the last 7 above are carried over.
target	siRNA no.	total luciferase, z-score	total luciferase, % of control	luciferase per cell, z-score	viable cells, % of control
NSMF	3	-0.778	66.4	-0.526	85.2
KCNA10	1	-0.311	75.7	0.351	77.1
KCNA10	2	-0.158	78.8	-0.353	96.6
KCNA10	3	-0.00248	81.8	-0.638	108
NDUFB9	1	1.2	106	1.22	85.6
NDUFB9	2	-0.172	78.5	-0.0949	89.9
NDUFB9	3	-0.216	77.6	-0.515	99.3
ZNF473CR	1	1.01	102	0.807	92.1
ZNF473CR	2	-0.171	78.5	0.18	83.6
ZNF473CR	3	0.114	84.2	0.0275	93.4
LOC727775 (retired record)	1	0.0479	82.8	0.0491	91.4
LOC727775 (retired record)	2	3.34 (active)	148	1.68	107
LOC727775 (retired record)	3	1.06	103	1.86	70.7
SYT1	1	0.501	91.9	0.239	96.4
SYT1	2	0.977	101	1.26	81.3
SYT1	3	-0.299	75.9	-0.13	87.8
AJAP1	1	0.606	93.9	0.0708	103
AJAP1	2	-1.6	50	-2.02	95.1
AJAP1	3	-0.0935	80	-0.212	94.6
CPLX1	1	-0.883	64.3	-1.02	94
CPLX1	2	-0.384	74.3	-0.474	94
CPLX1	3	0.124	84.4	0.116	91.4
WT1	1	-0.829	65.4	-0.768	89.5
WT1	2	0.461	91.1	0.156	97.7
WT1	3	0.363	89.1	-0.204	105
USP29	1	-0.39	74.1	-0.713	99.9
USP29	2	-1.25	57	-1.6	97.1
USP29	3	2.58	133	2.19	83.8
SLAMF9	1	-1.85	45.1	-1.1	67.5
SLAMF9	2	-0.817	65.6	-1.25	102
SLAMF9	3	0.42	90.2	1.23	72.9
FAM76A	1	1.19	106	0.807	95.3
FAM76A	2	-1.7	48.1	-1.33	76.3
FAM76A	3	0.34	88.6	-0.291	107
RAB40B	1	0.217	86.2	0.206	91.2
RAB40B	2	0.413	90.1	0.466	89.1
RAB40B	3	1.66	115	0.78	105
ZNF519	1	-1.35	54.9	-0.252	65.6
ZNF519	2	1.58	113	1.99	75
ZNF519	3	6.28 (active)	207	4.17	77.1
SOX5	1	1.46	111	1.33	87.3
SOX5	2	-0.0386	81.1	-0.795	112
SOX5	3	0.373	89.3	-0.745	121
MRGPRX2	1	0.263	87.1	-0.265	104
MRGPRX2	2	-2.27	36.7	-2.08	70.8
MRGPRX2	3	-0.188	78.2	-0.361	96.1
PDZK1IP1	1	-1.05	61	-0.997	88.6
PDZK1IP1	2	-0.433	73.3	-0.488	93.1
PDZK1IP1	3	1.28	107	2.11	68.7
